No constants are given. Whether binding was seen depends on the method and setting. In cells and extracts the contact can be indirect. For some assays here: Binding can be weak; no strength is given. Where a sequence is shown, tags or fusion partners need not be part of it.
What was measured:
[1] = molecular target: T1, SFB-tagged MFF (mitochondrial fission factor) (UniProt Q9GZY8); assay: pull-down; SFB-tagged bait and ARMC10 co-transfected into HEK293T cells; lysis in NETN buffer; lysates with S protein beads for 2 h at 4 °C; Western blot
T1 sequence: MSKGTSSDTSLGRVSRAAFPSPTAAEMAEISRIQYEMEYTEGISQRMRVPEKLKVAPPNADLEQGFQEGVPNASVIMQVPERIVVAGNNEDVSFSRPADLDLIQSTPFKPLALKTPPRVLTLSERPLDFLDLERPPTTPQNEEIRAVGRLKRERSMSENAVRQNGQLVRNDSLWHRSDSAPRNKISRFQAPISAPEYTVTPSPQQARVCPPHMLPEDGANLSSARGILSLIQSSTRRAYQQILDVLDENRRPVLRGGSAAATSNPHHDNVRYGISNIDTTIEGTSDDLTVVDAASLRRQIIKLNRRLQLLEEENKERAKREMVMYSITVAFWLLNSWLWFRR

[2] = molecular target: T2, SFB-tagged MFN1 (UniProt Q8IWA4); assay: as above
T2 sequence: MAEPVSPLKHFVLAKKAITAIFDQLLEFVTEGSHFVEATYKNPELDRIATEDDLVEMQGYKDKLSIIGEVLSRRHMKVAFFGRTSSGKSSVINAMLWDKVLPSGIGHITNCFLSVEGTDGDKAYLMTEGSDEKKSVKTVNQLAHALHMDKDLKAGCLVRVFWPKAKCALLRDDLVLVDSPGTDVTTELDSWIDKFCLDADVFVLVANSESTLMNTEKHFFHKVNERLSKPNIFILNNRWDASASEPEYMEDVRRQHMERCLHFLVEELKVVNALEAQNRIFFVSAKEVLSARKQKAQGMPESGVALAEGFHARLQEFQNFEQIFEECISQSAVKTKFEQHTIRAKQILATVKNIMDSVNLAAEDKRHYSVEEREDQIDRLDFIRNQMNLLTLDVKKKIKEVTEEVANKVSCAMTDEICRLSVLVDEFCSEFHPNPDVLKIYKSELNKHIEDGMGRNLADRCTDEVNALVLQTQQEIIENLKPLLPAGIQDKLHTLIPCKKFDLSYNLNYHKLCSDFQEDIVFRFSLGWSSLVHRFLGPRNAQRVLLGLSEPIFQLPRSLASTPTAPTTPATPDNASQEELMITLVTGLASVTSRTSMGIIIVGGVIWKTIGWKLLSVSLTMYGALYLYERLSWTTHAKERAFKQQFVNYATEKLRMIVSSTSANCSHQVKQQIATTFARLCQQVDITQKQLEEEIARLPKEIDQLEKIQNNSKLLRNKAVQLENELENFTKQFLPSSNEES

binding [1]: binds
binding [2]: no binding
Substance: Myc-tagged ARMC10, short isoform (308 residues) (human)

From article PMC6328551
